In the supplement of paper PMC12889115:
Some of the results follow. Values are raw readings; no control value is given beside them.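 Primary screen: polymyxin B was added at a level permeabilizing Salmonella outer membranes while sparing inner membranes. DMSO wells, both with and without polymyxin B, established maximum growth. Plate-to-plate variation meant each plate was ranked on its own, and the lowest-OD600 compounds were selected as hits.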

System: Salmonella enterica serovar Typhimurium SL1344
Experiment: bacterial growth OD600 after 18 h with compound and polymyxin B; higher = more bacterial growth (less inhibition)
Conditions: 50 µM, Mueller-Hinton broth

| SMILES | bacterial growth OD600 (polymyxin B 1 µg/mL) | bacterial growth OD600 (polymyxin B 0.75 µg/mL) |
| --- | --- | --- |
| C=C(C)CNC(=O)C1CCC(=O)N(Cc2cccc(C(F)(F)F)c2)C1 (centres undefined) | 0.847 | – |
| CN(CCc1nc2cc(Cl)ccc2[nH]1)C(=O)CCC1(Cc2cccc3ccccc23)CCC(=O)N1 (centres undefined) | – | 0.963 |
| COc1ccccc1Oc1ncccc1CNc1cnccn1 | 1.02 | – |
| O=C(NCCN1CCOCC1)c1ccc(N2CCC(NC[C@@H]3CCCN4CCCC[C@H]34)CC2)cc1 | – | 0.789 |
| CCNC(=O)C1CCCN1c1nc(C)c2ccc(S(C)(=O)=O)cc2n1 (centres undefined) | – | 0.959 |
| Cc1nonc1CNC1CCN(c2ccc(C(=O)NC(C)c3ccccc3)cc2)CC1 (centres undefined) | – | 0.796 |
| COc1ccc(CN2CCN(Cc3ccc4nsnc4c3)CC2CCO)c(C)c1C (centres undefined) | 0.97 | – |
| COCCNC(=O)c1ccc(OC)cc1OC1CCN(Cc2ccc(OC)cc2F)CC1 | 0.995 | – |
| COc1ccc(C2(CC(=O)N3CCC(Sc4ccc(F)cc4)CC3)CC(=O)N(C3CC3)C2=O)cc1 (centres undefined) | – | 0.824 |
| O=C(C1CCC(=O)N(C2CC2)C1)N1CCC(N2CCSCC2)CC1 (centres undefined) | 1.15 | – |
| CC(C)CCC1(C2CCN(C(=O)Cc3cc(F)cc(F)c3)CC2)NC(=O)N(Cc2ccccn2)C1=O (centres undefined) | – | 0.78 |
| COc1cccc(-c2n[nH]c3c2CN(C(=O)c2cc(C)nc(C)n2)CC3)c1 | – | 0.799 |
| COc1ccc(O)c(CN2CCC(C(Cc3ccccc3F)N(C)C(=O)c3ccsc3)CC2)c1 (centres undefined) | – | 0.466 |
| O=C(CC1(c2ccccc2Cl)CC(=O)N(C2CCCC2)C1=O)N1CCCCC1c1cccnc1 (centres undefined) | – | 0.003 |
| Cc1ccc2oc(C(=O)NC(c3cccnc3)C(F)(F)F)c(C)c2c1 (centres undefined) | 1.14 | – |
| CCC(C)n1cc(C(=O)N2CCCCCC2)c(=O)c(C(=O)N2CCN(Cc3cccc(F)c3)CC2)c1 (centres undefined) | – | 0.811 |
| CN(CC1CCOCC1)C(=O)c1ccc2nc(Cc3cccc(Cl)c3)oc2c1 | 0.82 | – |
| CSc1ccc(CN2CCCC(c3[nH]ncc3CC(C)C)C2)cc1 (centres undefined) | – | 0.838 |
| C=CCNC(=O)NC1CC(=O)N(Cc2cccc3ccccc23)C1 (centres undefined) | 0.863 | – |
| COc1cc(OC)cc(C(=O)NCC2CCCN(C(=O)CCn3nccc3C)C2)c1 (centres undefined) | – | 0.821 |
| COc1cc(CC(=O)N2CCOc3ccc(CN4CCCCC4CO)cc3C2)cc(OC)c1OC (centres undefined) | – | 0.876 |
| COCCN(C)c1ccc(C(=O)N2CCCC(c3ccccc3)CC2)cn1 (centres undefined) | 0.805 | – |
| Cc1ccc2[nH]c(C(=O)N3CCC(CCC(=O)NC4CC4)CC3)c(C)c2c1 | 0.811 | – |
| CC(C)CCNc1ccc(C(=O)N2CCCN(c3ncccn3)CC2)cn1 | – | 0.757 |
| CC(C)=CC(=O)N1CCCC(Nc2ccc(C)c(C)c2)C1 (centres undefined) | 0.842 | – |
| COc1ccccc1CCC(=O)N1CCC2(CC1)CC2C(=O)NCC1(c2ccccc2)CCOCC1 (centres undefined) | – | 0.804 |
| Cc1cc(C(=O)NCC2CCCN(Cc3nc(-c4cccs4)oc3C)C2)no1 (centres undefined) | 0.966 | – |
| COc1ccc(/C=C/CN2CCC(CO)(Cc3ccc(OC)cc3)CC2)cc1 | – | 0.708 |
| COCCn1cc(C(=O)NCC2(c3ccccc3)CCCC2)c(=O)c(C(=O)N2CCCC(C)C2)c1 (centres undefined) | – | 0.325 |

Shown as comma-separated lines: two of the compounds above
SMILES,bacterial growth OD600 (polymyxin B 1 µg/mL),bacterial growth OD600 (polymyxin B 0.75 µg/mL)
Cc1ccc2[nH]c(C(=O)N3CCC(CCC(=O)NC4CC4)CC3)c(C)c2c1,0.811,–
Cc1cc(C(=O)NCC2CCCN(Cc3nc(-c4cccs4)oc3C)C2)no1 (centres undefined),0.966,–
